The results in this text go back to publication PMC10250300.

The chains behind the UniProt entries cited, without tags or fusion partners. Where a name states a change or a piece, a line headed by the entry shows the natural chain unless it says otherwise. Residues count along the entry.
UniProt P08047: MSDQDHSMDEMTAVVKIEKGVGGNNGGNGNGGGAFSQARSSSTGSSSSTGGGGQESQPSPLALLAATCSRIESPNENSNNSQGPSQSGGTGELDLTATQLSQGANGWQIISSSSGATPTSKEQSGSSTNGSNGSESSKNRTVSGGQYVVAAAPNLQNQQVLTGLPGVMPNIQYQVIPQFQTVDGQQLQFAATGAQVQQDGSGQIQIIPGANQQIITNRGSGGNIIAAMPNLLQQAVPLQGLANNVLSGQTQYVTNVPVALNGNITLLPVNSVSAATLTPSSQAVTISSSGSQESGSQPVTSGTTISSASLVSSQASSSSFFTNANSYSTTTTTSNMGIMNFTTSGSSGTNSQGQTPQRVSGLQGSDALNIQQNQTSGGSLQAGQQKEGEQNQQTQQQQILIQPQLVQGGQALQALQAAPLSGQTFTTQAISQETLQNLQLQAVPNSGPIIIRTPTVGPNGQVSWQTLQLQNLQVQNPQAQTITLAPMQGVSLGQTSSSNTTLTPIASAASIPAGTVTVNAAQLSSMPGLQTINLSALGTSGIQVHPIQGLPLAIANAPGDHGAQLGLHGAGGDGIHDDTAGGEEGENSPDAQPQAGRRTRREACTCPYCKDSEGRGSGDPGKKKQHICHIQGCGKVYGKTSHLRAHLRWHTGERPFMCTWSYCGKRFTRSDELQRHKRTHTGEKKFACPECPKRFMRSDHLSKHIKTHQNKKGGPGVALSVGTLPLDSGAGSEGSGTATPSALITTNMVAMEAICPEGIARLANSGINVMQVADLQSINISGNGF
UniProt P19838, residues 1-433: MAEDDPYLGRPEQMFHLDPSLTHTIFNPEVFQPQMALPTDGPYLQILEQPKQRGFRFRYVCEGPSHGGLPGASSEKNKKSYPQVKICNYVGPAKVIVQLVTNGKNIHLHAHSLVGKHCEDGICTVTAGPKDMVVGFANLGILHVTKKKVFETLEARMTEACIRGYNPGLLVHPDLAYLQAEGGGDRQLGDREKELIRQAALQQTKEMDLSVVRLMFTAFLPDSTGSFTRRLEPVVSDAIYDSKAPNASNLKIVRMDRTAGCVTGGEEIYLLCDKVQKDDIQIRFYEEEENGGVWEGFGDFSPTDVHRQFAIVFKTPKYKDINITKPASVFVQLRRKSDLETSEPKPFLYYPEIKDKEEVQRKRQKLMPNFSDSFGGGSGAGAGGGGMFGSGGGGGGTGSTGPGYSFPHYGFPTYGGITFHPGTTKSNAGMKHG
UniProt Q04206: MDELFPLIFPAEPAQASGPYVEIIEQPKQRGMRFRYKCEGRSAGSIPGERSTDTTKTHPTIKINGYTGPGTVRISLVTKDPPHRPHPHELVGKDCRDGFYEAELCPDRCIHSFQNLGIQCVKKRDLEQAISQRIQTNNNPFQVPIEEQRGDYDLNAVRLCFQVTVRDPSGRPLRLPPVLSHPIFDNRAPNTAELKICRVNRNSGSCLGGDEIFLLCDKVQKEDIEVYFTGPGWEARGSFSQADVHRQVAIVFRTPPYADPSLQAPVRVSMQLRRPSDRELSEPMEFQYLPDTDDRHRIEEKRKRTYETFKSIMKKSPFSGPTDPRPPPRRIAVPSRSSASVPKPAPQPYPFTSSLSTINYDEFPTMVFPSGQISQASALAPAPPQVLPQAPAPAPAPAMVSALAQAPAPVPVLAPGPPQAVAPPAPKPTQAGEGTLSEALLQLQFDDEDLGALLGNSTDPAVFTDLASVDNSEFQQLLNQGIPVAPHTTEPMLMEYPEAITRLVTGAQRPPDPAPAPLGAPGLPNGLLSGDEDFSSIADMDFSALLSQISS
UniProt Q9C035: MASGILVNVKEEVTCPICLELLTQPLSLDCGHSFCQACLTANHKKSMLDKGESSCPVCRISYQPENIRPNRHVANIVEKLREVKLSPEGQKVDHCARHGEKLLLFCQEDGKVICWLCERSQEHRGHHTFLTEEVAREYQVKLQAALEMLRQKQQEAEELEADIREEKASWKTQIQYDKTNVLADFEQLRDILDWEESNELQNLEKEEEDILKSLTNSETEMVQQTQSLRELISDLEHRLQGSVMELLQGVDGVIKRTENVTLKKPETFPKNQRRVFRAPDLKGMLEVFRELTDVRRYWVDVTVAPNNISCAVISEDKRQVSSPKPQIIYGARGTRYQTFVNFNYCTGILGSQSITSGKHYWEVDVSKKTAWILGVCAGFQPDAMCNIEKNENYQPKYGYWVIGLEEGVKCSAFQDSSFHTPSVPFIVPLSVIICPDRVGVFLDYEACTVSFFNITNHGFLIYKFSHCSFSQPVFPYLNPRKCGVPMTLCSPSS
UniProt Q13547: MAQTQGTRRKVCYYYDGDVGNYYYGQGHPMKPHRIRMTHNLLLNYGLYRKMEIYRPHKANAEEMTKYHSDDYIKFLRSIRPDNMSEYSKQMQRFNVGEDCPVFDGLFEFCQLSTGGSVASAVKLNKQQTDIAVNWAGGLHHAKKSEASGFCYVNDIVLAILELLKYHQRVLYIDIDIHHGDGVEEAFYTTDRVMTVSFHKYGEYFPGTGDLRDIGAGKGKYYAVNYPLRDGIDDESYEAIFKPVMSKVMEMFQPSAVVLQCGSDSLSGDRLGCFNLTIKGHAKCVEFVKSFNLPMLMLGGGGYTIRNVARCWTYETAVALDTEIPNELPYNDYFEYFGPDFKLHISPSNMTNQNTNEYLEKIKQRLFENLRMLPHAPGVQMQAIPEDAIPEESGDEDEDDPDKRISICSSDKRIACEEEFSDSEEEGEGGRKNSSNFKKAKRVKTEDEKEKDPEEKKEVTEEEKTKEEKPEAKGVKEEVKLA

One test deals with Flag-tagged Sp1 (UniProt P08047). Description: co-IP; 293T cells co-transfected with Myc-HDAC1 and Flag-Sp1, Flag-p65 or Flag-p50, with or without HA-TRIM5α (WT or mutant); lysed 48 h after transfection in RIPA buffer (20 mM Tris pH 7.5, 150 mM NaCl, 1% Triton X-100); precipitated with mouse anti-Flag, blotted with anti-Flag, anti-Myc, anti-HA; in Fig. 6f, g also with TNFα (20 ng/ml, 24 h) before lysis.

Test [1] addresses Flag-tagged NF-κB p50 (UniProt P19838). Described as above.
The target is the same in test [2]. Description: co-IP.
Test [3] concerns the target Flag-tagged NF-κB p65 (UniProt Q04206). The test is described as follows: co-IP.
Test [4] has as its target HA-tagged human TRIM5α (wild type) (human) (UniProt Q9C035). Description: co-IP; 293T cells co-transfected with HDAC1-Myc and HA-TRIM5α (WT, ΔRING, ΔB-box 2, L19R or R119E); lysed 48 h after transfection in RIPA buffer; precipitated with rabbit anti-HA on Protein G-agarose (rabbit IgG as control), overnight at 4 °C; blotted with anti-Myc and anti-HA.
For test [5], the target named is HA-tagged human TRIM5α L19R (human) (UniProt Q9C035). Described as above.
Test [6] concerns the target Flag-tagged NF-κB p65 (UniProt Q04206). The test is described as follows: co-IP; 293T cells co-transfected with Myc-HDAC1 and Flag-Sp1, Flag-p65 or Flag-p50, with or without HA-TRIM5α (WT or mutant); lysed 48 h after transfection in RIPA buffer (20 mM Tris pH 7.5, 150 mM NaCl, 1% Triton X-100); precipitated with mouse anti-Flag, blotted with anti-Flag, anti-Myc, anti-HA; in Fig. 6f, g also with TNFα (20 ng/ml, 24 h) before lysis.

No constants are given. Whether binding was seen depends on the method and setting. In cells and extracts the contact can be indirect. Some entries that bind do so weakly or less than the wild type.

“HA-tagged human TRIM5α R119E (from UniProt Q9C035 1-493)”: the binding entry with Flag-tagged Sp1 and with Flag-tagged NF-κB p50 [1] was “binds weakly” in each case.

“Myc-tagged HDAC1 (from UniProt Q13547 1-482) (enzyme)”: the binding entry (in the test with Flag-tagged NF-κB p50 [2]; with Flag-tagged NF-κB p65 [3]; in test [4]; in test [5]) was “binds” each time.

Consider “HA-tagged human TRIM5α (wild type) (from UniProt Q9C035 1-493)”, for which the figures for the binding entry in the test with Flag-tagged Sp1, with Flag-tagged NF-κB p50 [1] and with Flag-tagged NF-κB p65 [6] were “binds”, “binds” and “binds weakly”, respectively.
